Data from PMC7819943, “Rice protein-binding microarrays: a tool to detect cis-acting elements near promoter regions in rice”.
Some of the results follow.

The chains behind the UniProt entries cited, without tags or fusion partners.
UniProt Q0JBA9, entry or part of it: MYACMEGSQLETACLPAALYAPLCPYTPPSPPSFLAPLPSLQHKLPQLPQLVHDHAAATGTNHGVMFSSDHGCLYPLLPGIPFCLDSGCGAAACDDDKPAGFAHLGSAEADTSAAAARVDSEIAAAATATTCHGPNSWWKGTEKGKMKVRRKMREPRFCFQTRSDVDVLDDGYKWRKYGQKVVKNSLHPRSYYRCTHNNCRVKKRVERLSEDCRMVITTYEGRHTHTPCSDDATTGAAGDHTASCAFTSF

target: OsWRKY34 (Oryza sativa, UniProt Q0JBA9 1-250); test: protein-binding microarray (RPBM); PBS, 2% BSA, 51.3 ng/ul salmon testes DNA, 50 uM zinc acetate, 200 nM TF, 25 C, 1 h; high values mean tight binding; details: protein: recombinant; tags: N-terminal polyhistidine and DsRed monomer fusion (pET32a); label: CyDye5-dUTP incorporated in the synthesized complementary strand; 3' TTTTT single-stranded linker to array surface; dsDNA, one strand shown
Method in brief: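 The binding signal is fluorescence intensity per array feature (arbitrary units). Readings came from an Axon 4000B scanner after a washed, 2% BSA-blocked, double-stranded custom Agilent array had been incubated for 1 h at 25 °C with 200 nM protein and 50 µM zinc acetate. The protein was a Ni–NTA-purified transcription factor fused N-terminally to polyhistidine and DsRed, expressed in E. coli BL21-CodonPlus.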

Row | Sequence | binding signal
1 | TCACTCACCCACACAGCCACACTCGCTGTGTTTCTCCTCTCGGAGTCACCTAGTGCAG | 8460 fluorescence intensity (a.u.)
2 | TGCGCTGCTCGGGAGGGAGGGAGGGTTACTAGGAGGTTGCCGGAGTCACCTAGTGCAG | 14600 fluorescence intensity (a.u.)
3 | CCTCGCCTCCGCCTCTGCCGCCGCCGCCACCGCCGCCGCCCGGAGTCACCTAGTGCAG | 10800 fluorescence intensity (a.u.)
4 | ATCGTCCCCATCGACTGTCGTCGCTGTCAATCGGAGCCACCGGAGTCACCTAGTGCAG | 8480 fluorescence intensity (a.u.)
5 | TCCCTATTTTTAATTCTGAATTTAAGTTATTTCCTAATTACGGAGTCACCTAGTGCAG | 9700 fluorescence intensity (a.u.)
6 | TGTGTCATATCCGGGGTTGGTTTTTTATGGGATGGAGGAACGGAGTCACCTAGTGCAG | 12000 fluorescence intensity (a.u.)
7 | TCTTTCTCCTACTCCTCCTGTGTGATGGGCTGGGCTGAGCCGGAGTCACCTAGTGCAG | 8540 fluorescence intensity (a.u.)
8 | TCTCGCGCGCGACGCCGCCGCCGCCTCGCCGCCGGCGATGCGGAGTCACCTAGTGCAG | 8020 fluorescence intensity (a.u.)
9 | ACTGGACATTGTCGCCGGTGCCTCGCTCCTGTCGGCGCCCCGGAGTCACCTAGTGCAG | 10400 fluorescence intensity (a.u.)
10 | GGCCTTGGTAGCTGACATGTGGTCCCAGCCGGCTATCCACCGGAGTCACCTAGTGCAG | 9000 fluorescence intensity (a.u.)
11 | ACCAGACCGCATTCTCTTTTTTTTTGCTATTATTTTCAAACGGAGTCACCTAGTGCAG | 11000 fluorescence intensity (a.u.)
12 | CCGTTTGATTGTTTGTCTGGCGTTAATTTTCGCGAACTGCCGGAGTCACCTAGTGCAG | 13600 fluorescence intensity (a.u.)
13 | TCCAAACTTCCAACTTTTCCTTCACATTATTTCAATTTCACGGAGTCACCTAGTGCAG | 8460 fluorescence intensity (a.u.)
14 | TTTTTCTGTCTGTTTTATGTACATGTATATGTTTTTTCTTCGGAGTCACCTAGTGCAG | 12100 fluorescence intensity (a.u.)
15 | ACGATTGCTGACCAAGTGACCAGTGTCCGTTTTCTCCGACCGGAGTCACCTAGTGCAG | 9630 fluorescence intensity (a.u.)
16 | CATGTCTTTTTTATAGGGCTTGCGTCGTCTTGTCTTGCCTCGGAGTCACCTAGTGCAG | 8670 fluorescence intensity (a.u.)
17 | CATTTTTTCCCCATGGATTTCAGTTGTCTTCTATGATTTGCGGAGTCACCTAGTGCAG | 8100 fluorescence intensity (a.u.)
18 | CACCGGCGCGCATTTTTTCTGGGGATAAGGTGGTTAGACTCGGAGTCACCTAGTGCAG | 8890 fluorescence intensity (a.u.)
19 | ATCACTAGCTCTCTGTTGCATCATCATTAAGTCATGGTGACGGAGTCACCTAGTGCAG | 8060 fluorescence intensity (a.u.)
20 | ACCCCGCCGGCCTCCTCGTCCTCGCCGTCGCCGCGCGCGTCGGAGTCACCTAGTGCAG | 14100 fluorescence intensity (a.u.)
21 | GGTAGTAGTTTGGTATTATGGGATGGATAAAATAACCACCCGGAGTCACCTAGTGCAG | 8540 fluorescence intensity (a.u.)

Row | Sequence | binding signal
22 | AAGTTGCTTATTTTCTTTGGTTGGTGTCTTTGTGTCGTCTCGGAGTCACCTAGTGCAG | 8400 fluorescence intensity (a.u.)
23 | CCACCTCCCCTCCTTCGCGCGTCGTCCGCCAACTGCAAAACGGAGTCACCTAGTGCAG | 8180 fluorescence intensity (a.u.)
24 | TTTTGTACCGGCGTCTGTTCTTTTGTTTTGCTTTTGCTGTCGGAGTCACCTAGTGCAG | 10700 fluorescence intensity (a.u.)
25 | CTTTCTTATACCTGACTGCATTTTTTTCCCTTCATTCTTTCGGAGTCACCTAGTGCAG | 10600 fluorescence intensity (a.u.)
26 | GTGGTTGATTCATTCGATATTGTTTTCACTTTCCTCTTCACGGAGTCACCTAGTGCAG | 9920 fluorescence intensity (a.u.)
27 | CTTTCTCTCTTCATACTCAACTTTTTCATATATTTTTTTCCGGAGTCACCTAGTGCAG | 10400 fluorescence intensity (a.u.)
28 | CCGTTACATTGTTCCAATTTTAATTAAACTTCCAATTTTACGGAGTCACCTAGTGCAG | 8470 fluorescence intensity (a.u.)
29 | GGATGCTCTTGTGTTCTTGTTGTTGATTTGTATTGTGGATCGGAGTCACCTAGTGCAG | 8240 fluorescence intensity (a.u.)
30 | CGGCGGCGGCGACCGCGGGTAGGGTGGGTGGCGCGGGCCGCGGAGTCACCTAGTGCAG | 9330 fluorescence intensity (a.u.)
31 | AGGGAGGAGGAGAGAGGCTGTGTCGGGTTTGTGTTGTGTTCGGAGTCACCTAGTGCAG | 10500 fluorescence intensity (a.u.)
32 | AGCCGCACATCATCTCGCTAACGTCATCCTTTGTGCCGAACGGAGTCACCTAGTGCAG | 9390 fluorescence intensity (a.u.)
33 | CGCATTTCTTCCTGTGTTAAGAACTTGTCACATTACTAACCGGAGTCACCTAGTGCAG | 9170 fluorescence intensity (a.u.)
34 | TGGGTGGGAGCTGGTGCTGTGGGCGAAATCCTAGCTCGATCGGAGTCACCTAGTGCAG | 9220 fluorescence intensity (a.u.)
35 | CTACTGCCTCTACTTGTGCACTCACAGACAGCTTCATTAGCGGAGTCACCTAGTGCAG | 8240 fluorescence intensity (a.u.)
36 | CTCTGTTTTACACTACCGACCATTTCTATTTCTGGCCCTTCGGAGTCACCTAGTGCAG | 9460 fluorescence intensity (a.u.)
37 | CTTGCATCCGCGCGCGCTTCTCCGCCTACCGCCGGCCTCCCGGAGTCACCTAGTGCAG | 10100 fluorescence intensity (a.u.)
38 | CTAAATGTTTGACACCGTTGACTTTTTTAAATATGTTTGACGGAGTCACCTAGTGCAG | 23300 fluorescence intensity (a.u.)
39 | ATATATACTTTGGTCAAATTATCACAAAACTACATATTTACGGAGTCACCTAGTGCAG | 8250 fluorescence intensity (a.u.)
40 | GGCAAAAGAATTTCCACACCTATGATAGCCTTGTTTTGTTCGGAGTCACCTAGTGCAG | 8110 fluorescence intensity (a.u.)
41 | AAAACGTATCTTGTCTTTATCACTTTATCGTGAGTTTTTTCGGAGTCACCTAGTGCAG | 12700 fluorescence intensity (a.u.)
42 | TTTTTGTCTTTGCCATCTTGTTCTGTTTGGTTTTCACATGCGGAGTCACCTAGTGCAG | 8810 fluorescence intensity (a.u.)

A second format for some results above:

| Row | Sequence | binding signal |
| --- | --- | --- |
| 30 | CGGCGGCGGCGACCGCGGGTAGGGTGGGTGGCGCGGGCCGCGGAGTCACCTAGTGCAG | 9330 fluorescence intensity (a.u.) |
| 31 | AGGGAGGAGGAGAGAGGCTGTGTCGGGTTTGTGTTGTGTTCGGAGTCACCTAGTGCAG | 10500 fluorescence intensity (a.u.) |
| 32 | AGCCGCACATCATCTCGCTAACGTCATCCTTTGTGCCGAACGGAGTCACCTAGTGCAG | 9390 fluorescence intensity (a.u.) |
| 33 | CGCATTTCTTCCTGTGTTAAGAACTTGTCACATTACTAACCGGAGTCACCTAGTGCAG | 9170 fluorescence intensity (a.u.) |
| 34 | TGGGTGGGAGCTGGTGCTGTGGGCGAAATCCTAGCTCGATCGGAGTCACCTAGTGCAG | 9220 fluorescence intensity (a.u.) |
| 35 | CTACTGCCTCTACTTGTGCACTCACAGACAGCTTCATTAGCGGAGTCACCTAGTGCAG | 8240 fluorescence intensity (a.u.) |
| 36 | CTCTGTTTTACACTACCGACCATTTCTATTTCTGGCCCTTCGGAGTCACCTAGTGCAG | 9460 fluorescence intensity (a.u.) |
| 37 | CTTGCATCCGCGCGCGCTTCTCCGCCTACCGCCGGCCTCCCGGAGTCACCTAGTGCAG | 10100 fluorescence intensity (a.u.) |
| 38 | CTAAATGTTTGACACCGTTGACTTTTTTAAATATGTTTGACGGAGTCACCTAGTGCAG | 23300 fluorescence intensity (a.u.) |
| 39 | ATATATACTTTGGTCAAATTATCACAAAACTACATATTTACGGAGTCACCTAGTGCAG | 8250 fluorescence intensity (a.u.) |
| 40 | GGCAAAAGAATTTCCACACCTATGATAGCCTTGTTTTGTTCGGAGTCACCTAGTGCAG | 8110 fluorescence intensity (a.u.) |
| 41 | AAAACGTATCTTGTCTTTATCACTTTATCGTGAGTTTTTTCGGAGTCACCTAGTGCAG | 12700 fluorescence intensity (a.u.) |
